These are yes or no findings as the source states them, for the method shown. Some results given as binding are weak or reduced against the parent protein; the word gives no strength.
Target: human full-length Notch3 with C-terminal FLAG tag, stably expressed on 293 FlpIn (TREx) cells (human) (UniProt Q9UM47)
Experiment: FACS, IgG on 293-N3 cells

Amino acid sequences for entries named in this document (tags omitted). A change or cut given only in a name is not applied to a line headed by its entry.
UniProt Q9UM47: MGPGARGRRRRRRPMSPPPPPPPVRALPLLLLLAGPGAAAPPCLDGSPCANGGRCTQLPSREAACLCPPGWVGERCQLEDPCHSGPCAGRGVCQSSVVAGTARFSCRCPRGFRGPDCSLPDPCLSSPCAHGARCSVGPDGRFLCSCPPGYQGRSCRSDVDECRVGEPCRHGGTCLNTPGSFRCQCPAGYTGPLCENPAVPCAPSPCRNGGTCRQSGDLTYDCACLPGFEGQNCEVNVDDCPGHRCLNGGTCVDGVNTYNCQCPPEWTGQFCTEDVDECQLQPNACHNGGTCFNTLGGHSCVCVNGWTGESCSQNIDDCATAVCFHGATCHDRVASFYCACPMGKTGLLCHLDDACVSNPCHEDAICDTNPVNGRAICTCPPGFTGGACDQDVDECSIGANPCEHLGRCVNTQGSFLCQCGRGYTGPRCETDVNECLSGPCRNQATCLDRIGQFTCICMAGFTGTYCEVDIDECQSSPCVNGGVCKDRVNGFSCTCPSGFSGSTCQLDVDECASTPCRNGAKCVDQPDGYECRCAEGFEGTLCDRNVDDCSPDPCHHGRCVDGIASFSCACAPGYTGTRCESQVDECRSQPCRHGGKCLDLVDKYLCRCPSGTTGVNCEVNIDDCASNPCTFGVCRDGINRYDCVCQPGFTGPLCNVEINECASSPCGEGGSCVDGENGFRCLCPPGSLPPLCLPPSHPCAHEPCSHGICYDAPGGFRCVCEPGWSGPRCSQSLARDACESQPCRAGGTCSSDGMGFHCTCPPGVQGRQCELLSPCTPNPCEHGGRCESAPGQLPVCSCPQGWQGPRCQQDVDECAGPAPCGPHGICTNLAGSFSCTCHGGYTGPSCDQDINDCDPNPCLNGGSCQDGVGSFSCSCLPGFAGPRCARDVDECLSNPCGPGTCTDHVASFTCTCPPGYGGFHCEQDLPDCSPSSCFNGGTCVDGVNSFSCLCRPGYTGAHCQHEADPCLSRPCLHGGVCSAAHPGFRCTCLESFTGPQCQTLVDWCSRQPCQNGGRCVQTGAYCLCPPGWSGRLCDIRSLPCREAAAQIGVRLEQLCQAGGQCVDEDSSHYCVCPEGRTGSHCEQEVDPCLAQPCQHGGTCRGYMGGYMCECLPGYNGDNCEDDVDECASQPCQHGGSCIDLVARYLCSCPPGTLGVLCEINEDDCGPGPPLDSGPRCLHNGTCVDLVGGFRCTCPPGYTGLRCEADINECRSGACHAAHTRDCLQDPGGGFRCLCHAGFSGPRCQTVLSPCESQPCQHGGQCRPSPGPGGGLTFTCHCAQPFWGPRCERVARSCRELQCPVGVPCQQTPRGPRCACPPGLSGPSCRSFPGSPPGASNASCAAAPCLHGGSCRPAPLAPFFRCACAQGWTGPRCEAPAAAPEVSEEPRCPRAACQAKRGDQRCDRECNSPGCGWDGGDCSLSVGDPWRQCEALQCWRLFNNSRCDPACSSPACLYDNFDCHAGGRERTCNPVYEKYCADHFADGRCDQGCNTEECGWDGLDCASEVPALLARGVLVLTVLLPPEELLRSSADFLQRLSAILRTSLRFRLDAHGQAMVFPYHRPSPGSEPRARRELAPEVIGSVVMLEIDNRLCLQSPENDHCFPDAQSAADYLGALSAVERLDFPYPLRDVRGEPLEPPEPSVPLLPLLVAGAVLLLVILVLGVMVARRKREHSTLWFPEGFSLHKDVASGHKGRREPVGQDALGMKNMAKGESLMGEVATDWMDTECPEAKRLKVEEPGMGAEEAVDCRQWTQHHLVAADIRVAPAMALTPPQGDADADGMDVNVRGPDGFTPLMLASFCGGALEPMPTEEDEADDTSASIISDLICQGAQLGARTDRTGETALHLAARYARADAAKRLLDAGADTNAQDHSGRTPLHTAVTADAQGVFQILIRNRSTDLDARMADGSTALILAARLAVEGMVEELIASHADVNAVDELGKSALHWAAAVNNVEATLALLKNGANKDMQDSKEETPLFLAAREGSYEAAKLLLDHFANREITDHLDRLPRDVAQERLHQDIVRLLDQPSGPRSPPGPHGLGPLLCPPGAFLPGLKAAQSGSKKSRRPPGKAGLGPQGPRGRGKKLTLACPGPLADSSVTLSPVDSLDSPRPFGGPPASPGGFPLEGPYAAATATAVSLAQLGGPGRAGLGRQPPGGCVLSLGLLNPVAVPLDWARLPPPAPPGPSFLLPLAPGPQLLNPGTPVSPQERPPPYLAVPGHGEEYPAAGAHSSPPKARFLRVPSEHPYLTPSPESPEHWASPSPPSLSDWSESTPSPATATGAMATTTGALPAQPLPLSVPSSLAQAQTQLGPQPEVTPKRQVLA

B1: FL-SKNAS-C2-514 (antibody, human IgG1, lambda, V domains shown)
VH: EVQLVQSGAEVKEPGESLRISCKASGYDFSNYWIAWVRQMPGKGLEWMGIIYPGDSDTRYSPSFQGQVTISVDRSISTAYLQWSSLKASDTALYYCSRPTYWSTTWGREFDYWGQGTLVTVSS
VL: SYELTQPPSVSVSPGQTATITCSGDALPKKYAYWYQQKSGQAPVLVVYEDSKRPSGIPERFSGSSSGTMATLTISGAQVEDEADYYCYSTDSSGNHWVFGGGTKLTVLG
Question: For B1, which binding is on record?
Answer: binds

B2: A673-C2-110 (antibody, human IgG1, lambda, V domains shown)
VH: QVQLVQSGTEVKKPGASVRVSCKPSADTFTSYYVHWVRQAPGQGLEWMGTINPTGTYTRYAQQFQGRVTVTRDTSTSSVYMELSSLRSEDSAVYYCARDVRPYTAMYSFDNWGRGTTVTVSS
VL: SYVLTQPPSVSVSPGQTATITCSGDALPKQYANWYQQKPGQAPVLMIYKDSDRPSGIPERFSGSSSGTKATLTISGVQAEDEADYYCQSADNSGTNYVFGTGTKLTVLG
Question: Which binding does the source give for B2 here?
Answer: binds
